Here are results for 1 molecule from paper PMC9436821.

For the assay, the target named is T1, STX17, endogenous, P56962.
T1 chain: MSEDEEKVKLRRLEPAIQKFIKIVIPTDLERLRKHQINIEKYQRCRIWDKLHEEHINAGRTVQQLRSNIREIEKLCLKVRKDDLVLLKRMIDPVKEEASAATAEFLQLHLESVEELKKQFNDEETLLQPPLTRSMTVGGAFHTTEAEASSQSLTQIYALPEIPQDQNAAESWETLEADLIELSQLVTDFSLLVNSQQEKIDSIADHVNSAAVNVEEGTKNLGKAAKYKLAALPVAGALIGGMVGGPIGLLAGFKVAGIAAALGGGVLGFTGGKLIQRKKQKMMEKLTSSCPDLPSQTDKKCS
Kind of assay: co-IP; cells transfected with FLAG-ULK1-WT or FLAG-ULK1-2A, treated with CQ; IP of STX17 with FLAG blot (A) and IP of FLAG with STX17 blot (B). The note with it: remark: other sources report otherwise.

No constants are given. Whether binding was seen depends on the method and setting. Binding seen in cells or lysates may run through a third protein. Some binding calls cover weakened binding; strength is not graded here. Sequences can lack the tags named with a protein.

B1: FLAG-ULK1-WT, O75385 1-1050 (protein)
chain: MEPGRGGTETVGKFEFSRKDLIGHGAFAVVFKGRHREKHDLEVAVKCINKKNLAKSQTLLGKEIKILKELKHENIVALYDFQEMANSVYLVMEYCNGGDLADYLHAMRTLSEDTIRLFLQQIAGAMRLLHSKGIIHRDLKPQNILLSNPAGRRANPNSIRVKIADFGFARYLQSNMMAATLCGSPMYMAPEVIMSQHYDGKADLWSIGTIVYQCLTGKAPFQASSPQDLRLFYEKNKTLVPTIPRETSAPLRQLLLALLQRNHKDRMDFDEFFHHPFLDASPSVRKSPPVPVPSYPSSGSGSSSSSSSTSHLASPPSLGEMQQLQKTLASPADTAGFLHSSRDSGGSKDSSCDTDDFVMVPAQFPGDLVAEAPSAKPPPDSLMCSGSSLVASAGLESHGRTPSPSPPCSSSPSPSGRAGPFSSSRCGASVPIPVPTQVQNYQRIERNLQSPTQFQTPRSSAIRRSGSTSPLGFARASPSPPAHAEHGGVLARKMSLGGGRPYTPSPQVGTIPERPGWSGTPSPQGAEMRGGRSPRPGSSAPEHSPRTSGLGCRLHSAPNLSDLHVVRPKLPKPPTDPLGAVFSPPQASPPQPSHGLQSCRNLRGSPKLPDFLQRNPLPPILGSPTKAVPSFDFPKTPSSQNLLALLARQGVVMTPPRNRTLPDLSEVGPFHGQPLGPGLRPGEDPKGPFGRSFSTSRLTDLLLKAAFGTQAPDPGSTESLQEKPMEIAPSAGFGGSLHPGARAGGTSSPSPVVFTVGSPPSGSTPPQGPRTRMFSAGPTGSASSSARHLVPGPCSEAPAPELPAPGHGCSFADPITANLEGAVTFEAPDLPEETLMEQEHTEILRGLRFTLLFVQHVLEIAALKGSASEAAGGPEYQLQESVVADQISLLSREWGFAEQLVLYLKVAELLSSGLQSAIDQIRAGKLCLSSTVKQVVRRLNELYKASVVSCQGLSLRLQRFFLDKQRLLDRIHSITAERLIFSHAVQMVQSAALDEMFQHREGCVPRYHKALLLLEGLQHMLSDQADIENVTKCKLCIERRLSALLTGICA
With B1, the binding entry is “binds”.
